{"source": "patent US20130023574A1", "about": "“METHOD FOR GENERATING DATA SET FOR INTEGRATED PROTEOMICS, INTEGRATED PROTEOMICS METHOD USING DATA SET FOR INTEGRATED PROTEOMICS THAT IS GENERATED BY THE GENERATION METHOD, AND METHOD FOR IDENTIFYING CAUSATIVE SUBSTANCE USING SAME” (National University Corporation Kumamoto University, priority 2010, published 2013)", "key": {"U373 cells": {"tested_on": "U373 cells", "assay": "Chemoresistance to TMZ (rate of living cells, absorbance) in glioma cell line U373", "format": "cell-based, human", "settings": "TMZ 5, 10 and 20 μM, 6 days; U373 cells compared with A172 cells", "description": "The experiment was carried out by inoculating the glioma cell line on a 96-well plate at the rate of 100 cells per well and adding TMZ at varying concentration ranging from 0 to 20 μM to each well after 5 hours of inoculation. After the plate was incubated for 6 days, absorbance at 450 nm was measured […]. The rate of living cells was expressed by percentage (%) at the defined concentrations of TMZ by setting the concentration rate of 0 μM as a control and as a standard rate of the living cells at the respective TMZ concentrations. […] In other words, it was found in the glioma cell line that the chemoresistance was increased to a higher extent as the variation expression amounts of vimentin were higher.\nThis experiment was implemented by inoculating a 6-well plate with glioma cells at the rate of 10^6 cells per well, followed by introduction of a vimentin siRNA or a control siRNA into the cells using lipofectamin 2000 after 24 hours of inoculation. […] After the plate was incubated for 6 days, absorbance at 450 nm was measured […]. […]\nThis experiment was implemented to investigate an influence of the PAK1-induced vimentin phosphorylation on the sensitivity to anticancer agents in the glioma cell line. […] After incubation for 6 days, the portion having absorbance at 420 nm was measured by Western blotting. […]"}, "A172 cells": {"tested_on": "A172 cells", "assay": "Chemoresistance to TMZ (rate of living cells, absorbance) in glioma cell line A172", "format": "cell-based, human", "settings": "A172 (LOH+) cells"}}, "note": "At least one compound was matched to its structure with a doubt left.", "data": [{"smiles": "Cn1nnc2c(C(N)=O)ncn2c1=O", "note": "[TMZ, temozolomide]", "values": [{"measurement": "resistance to anticancer agents (rate of living cells)", "setting": "U373 cells", "value": "higher and significant resistance"}, {"measurement": "sensitivity to TMZ", "setting": "A172 cells", "value": "high sensitivity"}]}]}
